In article PMC10193013, “Nonstructural N- and C-tails of Dbp2 confer the protein full helicase activities” (The Journal of Biological Chemistry, 2023):
Results are given in words; binding and its absence hold for the method and conditions named.

Amino acid sequences for entries named in this document (tags omitted). Residues count along the entry.
UniProt P24783, residues 53-496: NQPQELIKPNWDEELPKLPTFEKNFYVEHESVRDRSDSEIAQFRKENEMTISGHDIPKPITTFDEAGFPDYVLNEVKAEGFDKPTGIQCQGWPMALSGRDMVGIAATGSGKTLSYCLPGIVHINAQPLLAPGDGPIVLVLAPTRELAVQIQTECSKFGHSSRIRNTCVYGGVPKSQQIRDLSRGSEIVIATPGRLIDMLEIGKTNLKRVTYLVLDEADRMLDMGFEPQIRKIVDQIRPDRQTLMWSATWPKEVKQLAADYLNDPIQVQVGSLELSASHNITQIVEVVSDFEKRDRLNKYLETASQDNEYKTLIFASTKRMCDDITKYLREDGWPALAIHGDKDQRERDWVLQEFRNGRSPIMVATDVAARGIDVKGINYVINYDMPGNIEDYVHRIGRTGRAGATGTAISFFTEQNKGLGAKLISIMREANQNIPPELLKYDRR

Key:
[1] = molecular target: Dbp2^53-496 (helicase core of Dbp2) (S. cerevisiae) (UniProt P24783); assay: SAXS; Dbp2^53-496 with ADP in solution; beamline SWING (SOLEIL); both purified
[2] = molecular target: Dbp2 catalytic core, proteolytic fragment of full-length Dbp2 (crystallised with ADP) (S. cerevisiae) (UniProt P24783); assay: crystal structure; Dbp2 helicase core with 20 mM ADP and 16 nt polyGT ssDNA; sitting drop, 20 °C, 2.02 M (NH4)2SO4, 100 mM Tris pH 7.5; space group P212121, six molecules in the asymmetric unit; both purified

| binding [1] | binding [2] | Substance |
| --- | --- | --- |
| no binding |  | Dbp2^53-496 (helicase core of Dbp2) (from UniProt P24783 53-496) (domain or fragment) |
|  | no binding | Dbp2 catalytic core, proteolytic fragment of full-length Dbp2 (crystallised with ADP) (from UniProt P24783 53-496) (domain or fragment) |
